PubChem BioAssay AID652259, Drosophila RNAi Screening Center – 2013
Test: 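Identify new Wingless signalling regulators in fly cells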 (primary screen). Cells: Drosophila clone 8 imaginal disc epithelial cells. Reagent: long dsRNA against Drosophila genes. Treatment: pathway stimulated by co-transfected Wingless expression plasmid. Measured: 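Dual luciferase reads per well after Wingless plasmid stimulation: reporter firefly light and Renilla control light; activity is firefly divided by Renilla, a ratio not deposited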. Direction: firefly reporter light: higher = more Wg reporter light, before normalisation; Renilla control light: higher = more transfected or surviving cells. Hit rule: 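a knock-down is a candidate when at least two out of four statistical tests show it departing from its plate mean; one test alone signals a weak candidate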. Meaning of the calls: active = candidate regulator (raises or lowers reporter); inactive = not a candidate.
The deposit covers about 22,000 reagents; shown is an unselected part of those that have a named target and a result. Over the whole deposit, 233 (1.1%) got an active call. 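Light values are raw, unnormalised plate reads; the ratio scores behind the reporter calls were not deposited.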 Unmarked entries are inactive. The numbers tell different reagents against one gene apart. Not stated in the record: the amount of reagent, the time to read-out, the dose of the treatment.

Gene | dsRNA no. | firefly reporter light, replicate 1 | firefly reporter light, replicate 2 | Renilla control light, replicate 1 | Renilla control light, replicate 2
IntS1 (Integrator 1) | 1 | 6691 | – | 3544 | –
Cdc37 (Cell division cycle 37) | 1 | 5613 | – | 2128 | –
beat-IIa (beaten path IIa) | 1 | 16268 | – | 4744 | –
beat-IIa (beaten path IIa) | 2 | 10870 | – | 2215 | –
f (forked) | 1 | 2113 | – | 1078 | –
f (forked) | 2 | 17892 | – | 7749 | –
f (forked) | 3 | 14391 | – | 6576 | –
nec (necrotic) | 1 | 2310 | 8443 | 633 | 3299
CG4849 | 1 | 1915 | 6464 | 451 | 727
CG14400 | 1 | 2496 | 8130 | 838 | 2960
Wdr81 (WD repeat domain 81) | 1 | 4903 | – | 1361 | –
C3G (C3G guanyl-nucleotide exchange factor) | 1 | 20663 | – | 11153 | –
C3G (C3G guanyl-nucleotide exchange factor) | 2 | 21475 | – | 13304 | –
C3G (C3G guanyl-nucleotide exchange factor) | 3 | 7.08e5 | 6.86e5 | 3.54e5 | 3.34e5

Part of the list above, reduced to “Renilla control light, replicate 1”:
Cdc37 (Cell division cycle 37)	2128
beat-IIa (beaten path IIa) #1	4744
beat-IIa (beaten path IIa) #2	2215
f (forked) #1	1078

The listing continues:
Gene | dsRNA no. | firefly reporter light, replicate 1 | firefly reporter light, replicate 2 | Renilla control light, replicate 1 | Renilla control light, replicate 2
Clc (Clathrin light chain) | 1 | 3845 | – | 1275 | –
ItgaPS4 (Integrin alphaPS4 subunit) | 1 | 5617 | – | 2220 | –
CG14232 | 1 | 3440 | 6100 | 1408 | 2266
Mccc2 (Methylcrotonoyl-CoA carboxylase 2) | 1 | 3061 | 6456 | 536 | 2074
CG32006 | 1 | 4.83e5 | 3.33e5 | 2.70e5 | 1.29e5
CR17438 (pseudo) | 1 | 19584 | – | 8752 | –
CG31323 | 1 | 23958 | – | 18109 | –
CG11000 | 1 | 2864 | – | 679 | –
CG11000 | 2 | 14692 | – | 5018 | –
Cnx14D (Calnexin 14D) | 1 | 25832 | – | 11312 | –
CG15136 | 1 | 2032 | 5636 | 727 | 2528
milt (milton) | 1 | 15504 | – | 7129 | –
milt (milton) | 2 | 16480 | – | 8073 | –
milt (milton) | 3 | 18852 | – | 7477 | –
PGRP-LE (Peptidoglycan recognition protein LE) | 1 | 2928 | 5941 | 1101 | 2074
